## Primary screen of a compound library

Sequences of proteins named here, by UniProt entry; tags and fusion partners are left off.
UniProt E9BF75, entry or part of it: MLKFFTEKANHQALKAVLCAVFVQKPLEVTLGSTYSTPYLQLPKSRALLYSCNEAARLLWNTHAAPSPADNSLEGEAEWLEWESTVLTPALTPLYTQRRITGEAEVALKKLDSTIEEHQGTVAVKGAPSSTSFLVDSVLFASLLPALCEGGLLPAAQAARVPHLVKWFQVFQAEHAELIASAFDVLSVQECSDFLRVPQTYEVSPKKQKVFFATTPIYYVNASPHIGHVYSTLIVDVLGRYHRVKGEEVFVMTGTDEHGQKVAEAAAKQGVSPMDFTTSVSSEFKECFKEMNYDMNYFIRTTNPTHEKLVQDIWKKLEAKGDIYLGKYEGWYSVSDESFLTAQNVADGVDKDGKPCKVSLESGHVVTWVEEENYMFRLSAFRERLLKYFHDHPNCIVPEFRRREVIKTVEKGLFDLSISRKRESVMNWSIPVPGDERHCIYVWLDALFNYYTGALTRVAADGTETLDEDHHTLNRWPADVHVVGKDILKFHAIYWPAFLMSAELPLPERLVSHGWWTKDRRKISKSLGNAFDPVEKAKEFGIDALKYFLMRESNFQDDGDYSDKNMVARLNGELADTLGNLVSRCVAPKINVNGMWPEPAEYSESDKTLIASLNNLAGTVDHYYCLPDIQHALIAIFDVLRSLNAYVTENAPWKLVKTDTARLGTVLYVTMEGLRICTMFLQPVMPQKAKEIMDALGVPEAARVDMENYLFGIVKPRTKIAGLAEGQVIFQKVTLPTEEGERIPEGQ

The values are deposited in ChEMBL (CHEMBL3988442, “University of Dundee, Small-Polar-MMV Screening Library” (2021)).

A: 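Methionyl-tRNA synthetase (putative), Leishmania donovani (UniProt E9BF75). Primary screen of methionyl-tRNA synthetase; the read-out is not stated. The test concentration is not given. Values are per cent inhibition. Of about 68,000 compounds tested this way, about 24 (0.035%) reached 50% or more in at least one test.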
B: 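Assay on Mycobacterium tuberculosis, filed only as a heat shock assay from Cornell; the read-out is not stated. The concentration is filed as 10 mM, unlikely as a test dose, so the dose is not known. Higher reads as stronger inhibition (inferred: compounds with an IC50 in retests scored well above the rest). Size under these conditions: about 69,000 compounds, about 930 of them at 50% or above in at least one test.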

All values are in %. How 0% and 100% were set is not recorded. Most values in the screen are low, and negative values occur. Compounds were drawn at random from those tested, without regard to their results. A dash means the value is not listed here; it may have been measured.

structure	A	B
FC(F)(F)c1ccc(-n2ccnc2-c2cc3n(n2)CCNC3)cn1	19.73	-39.83
CC(C)(C)c1n[nH]cc1CN1CCc2nc3ccsc3c(=O)n2CC1	6.507	-9.826
Cc1cnn(CC2CN(c3ncnc4ccsc34)CCO2)c1 (centres undefined)	12.38	28.88
Cc1ccc(CNCC2CCCN2c2cccnn2)s1 (centres undefined)	24.59	6.579
CCc1nc(C)c([C@H]2CN(C)C[C@@H]2C(=O)Nc2ccc(OC)cc2)[nH]1	19.2	8.078
O=C(O)C(F)(F)F.O=C(O)C(F)(F)F.[H][C@@]12CCN(Cc3cccc(C#N)c3)C[C@]1([H])[C@@H](CN(C)C(C)C)OC2	-	-35.34
CC1(C)CNC(=O)c2nc(C3CCCN(C(=O)C4CC4)C3)[nH]c2C1 (centres undefined)	11.46	8.997
CCN1CCC2(COCc3cnc(NCC4CC4)nc32)C1.O=C(O)C(F)(F)F (centres undefined)	-	-21.87
O=C1CC(c2cccs2)Cc2nc(O)c(C(=O)N3CCCC3)cc21 (centres undefined)	-1.299	11.29
CC(C)c1ccc(OCCNC(=O)CN2CCN(C)CC2C)cc1 (centres undefined)	14.92	-27.51
O=C(CO)N1CCCC2(CCN(c3ccsc3)C2=O)C1 (centres undefined)	-20.33	1.124
CC(=O)N1[C@@H](C(=O)NCC2CC2)C[C@@H]2CN(Cc3ccco3)C[C@@H]21	3.03	-
Cn1ccc2c(-c3cc(N4CCOCC4)ncn3)ccnc21	20.72	-7.31
COc1c(CNCc2ccc3c(c2)OCCO3)c(C(C)C)nn1C	10.86	-7.8
Cn1cc(C(=O)N2CCCC(c3ncc[nH]3)C2)cn1 (centres undefined)	8.681	16.67
O=C(Nc1ccccc1OCCc1ccccn1)N1CCOCC1	18.58	-0.7872
COc1ccccc1NC(=O)NCc1nnc(SC)n1C	12.46	0.07422
O=C(NCc1ccc(CN2CCCCC2)cc1)Nc1cccnc1	7.692	-7.031
CO[C@@H]1CCN(Cc2cnn(C)c2)[C@@H]2CN(Cc3cccnc3)C[C@@H]21	18.16	-
CNS(=O)(=O)CC(=O)NC(C)Cc1ccc(Br)cc1 (centres undefined)	9.938	9.168
CCN(CC)C(=O)c1ccc(CNc2ncc(C#N)cc2Cl)cc1	11.42	-14.65
O=C1CC(c2ccc(CO)o2)c2cnn(Cc3ccco3)c2N1 (centres undefined)	16.28	11.31
CCN(C)C(=O)c1cnc(-c2noc3cc(N4CCCCC4)ccc23)s1	10.14	85.74
Cc1nc(CN)cc(NCc2ccccc2-n2cncn2)n1	10.45	-0.9048
N#Cc1cn(C2CC2)c(=O)n(CC(O)c2ccc(OC(F)F)cc2)c1=O (centres undefined)	16.33	3.313

Once more, the final 2:

| structure | A | B |
|---|---|---|
| `Cc1nc(CN)cc(NCc2ccccc2-n2cncn2)n1` | 10.45 | -0.9048 |
| `N#Cc1cn(C2CC2)c(=O)n(CC(O)c2ccc(OC(F)F)cc2)c1=O` (centres undefined) | 16.33 | 3.313 |